Source: PubChem BioAssay AID1259254 (NCATS, 2017)
Assay: 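Finding genes that stop cells copying their DNA twice in one cycle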 (primary screen). Cells: human HCT116 colorectal cancer cells. Reagent: single siRNA against human genes. Duration: 3 days. Measured: 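Imaged Hoechst DNA stain sorts each cell into a cycle phase by DNA amount; per plate, G2 fraction set to 0% for non-targeting and 100% for GMNN siRNA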. Direction: G2 robust z-score and G2 cells, % of GMNN control: higher = more G2 cells, more excess DNA replication; raw share of cells in G2: higher = larger share of cells with G2 DNA content. Active means: 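An siRNA counts as active if its G2 robust z-score lies at least 5 MADs above the screen median; here such calls match roughly 38% of GMNN control or more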.
Shown is one part, drawn at random, of about 59,000 deposited reagents. About 1,550 of them (2.6%) were called active. 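G2 share is only a proxy for re-replication; each gene was hit by three separate siRNAs, and active genes were retested.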 Raw values vary from plate to plate and are shown uncorrected. A number with no mark means an inactive call. Reagents against one gene are numbered here. Not given: the amount of reagent.

| gene knocked down | siRNA no. | G2 robust z-score | G2 cells, % of GMNN control | raw share of cells in G2 (%) |
| --- | --- | --- | --- | --- |
| ACER3 | 1 | 0.194 | 4.33 | 8.33 |
| ACER3 | 2 | 0.38 | 5.64 | 6.46 |
| ACER3 | 3 | 3.39 | 26.8 | 15.5 |
| ADRA2A | 1 | -1.28 | -6.06 | 3.67 |
| ADRA2A | 2 | -0.66 | -1.68 | 3.93 |
| ADRA2A | 3 | 5.33 (active) | 40.5 | 15.7 |
| ZNF711 | 1 | -0.191 | 1.62 | 4.07 |
| ZNF711 | 2 | -0.152 | 1.9 | 6.83 |
| ZNF711 | 3 | -0.409 | 0.0868 | 3.38 |
| TECTB | 1 | 1.42 | 12.9 | 10.9 |
| TECTB | 2 | -1.05 | -4.45 | 2.13 |
| TECTB | 3 | 0.268 | 4.85 | 5.06 |
| WDR19 | 1 | -0.914 | -3.47 | 2.98 |
| WDR19 | 2 | 0.562 | 6.92 | 7.77 |
| WDR19 | 3 | 1.16 | 11.1 | 6.56 |
| PTAR1 | 1 | 0.957 | 9.7 | 8.75 |
| PTAR1 | 2 | 1.76 | 15.4 | 12.5 |
| PTAR1 | 3 | 0.157 | 4.07 | 5.77 |
| RPS3A | 1 | 7.29 (active) | 54.3 | 28 |
| RPS3A | 2 | 5.54 (active) | 41.9 | 20.8 |
| RPS3A | 3 | 2.31 | 19.2 | 10.3 |
| TP73 | 1 | -0.398 | 0.164 | 3.53 |
| TP73 | 2 | 1.73 | 15.1 | 11.9 |
| TP73 | 3 | 2.44 | 20.1 | 10.4 |
| ZNF750 | 1 | -0.196 | 1.59 | 5.1 |
| ZNF750 | 2 | -0.821 | -2.81 | 3.08 |
| ZNF750 | 3 | -1.2 | -5.45 | 0.887 |
| TWNK | 1 | -1.96 | -10.8 | 1.7 |
| TWNK | 2 | -0.309 | 0.792 | 4.72 |
| TWNK | 3 | 0.105 | 3.7 | 5.88 |

Reformatted: results already given.
gene knocked down | siRNA no. | G2 robust z-score | G2 cells, % of GMNN control | raw share of cells in G2 (%)
ADRA2A | 3 | 5.33 (active) | 40.5 | 15.7
ZNF711 | 1 | -0.191 | 1.62 | 4.07
ZNF711 | 2 | -0.152 | 1.9 | 6.83
ZNF711 | 3 | -0.409 | 0.0868 | 3.38
TECTB | 1 | 1.42 | 12.9 | 10.9
